# Experimental data taken from paper PMC5996148.
# The other results are listed elsewhere or left out.
# Tests used:
# Experiment in all cases: protein microarray (ProtoArray v5.0), streptavidin-Alexa Fluor 647
# Settings in all cases: 3'-biotin; 20 mM Tris (pH 7.5), 5 mM MgCl2, 100 mM KCl, 0.1% Tween-20, A/T-rich and random oligonucleotide blockers; temperature not stated; high values mean tight binding
# C2orf18 (human) = tested on: C2orf18 (human)
# C2orf33 (human) = tested on: C2orf33 (human)
# C2orf43 (human) = tested on: C2orf43 (human)
# C3orf45 (human) = tested on: C3orf45 (human)
# C4BPB (human) = tested on: C4BPB (human)
# [1] = tested on: C4b-binding protein beta chain (human)
# C4orf18 (human) = tested on: C4orf18 (human)
# C4orf19 (human) = tested on: C4orf19 (human)
# C4orf33 (human) = tested on: C4orf33 (human)
# C4orf35 (human) = tested on: C4orf35 (human)
# C5AR1 (human) = tested on: C5AR1 (human)
# C5orf3 (human) = tested on: C5orf3 (human)
# C6orf106 (human) = tested on: C6orf106 (human)
# C6orf108 (human) = tested on: C6orf108 (human)
# C6orf118 (human) = tested on: C6orf118 (human)
# C6orf145 (human) = tested on: C6orf145 (human)
# C6orf206 (human) = tested on: C6orf206 (human)
# C6orf48 (human) = tested on: C6orf48 (human)
# C6orf49 (human) = tested on: C6orf49 (human)
# C6orf89 (human) = tested on: C6orf89 (human)
sequence,measurement,setting,value
GGTGACAGGGGTATGGGGAGGGG [G4-2 biotinylated (Ct1)],binding signal,C2orf18 (human),-0.38 z-score
same,binding signal,C2orf33 (human),-0.393 z-score
same,binding signal,C2orf43 (human),-0.391 z-score
same,binding signal,C3orf45 (human),-0.37 z-score
same,binding signal,C4BPB (human),-0.37 z-score
same,binding signal,[1],-0.376 z-score
same,binding signal,C4orf18 (human),-0.385 z-score
same,binding signal,C4orf19 (human),-0.374 z-score
same,binding signal,C4orf33 (human),-0.375 z-score
same,binding signal,C4orf35 (human),-0.388 z-score
same,binding signal,C5AR1 (human),-0.378 z-score
same,binding signal,C5orf3 (human),-0.396 z-score
same,binding signal,C6orf106 (human),-0.373 z-score
same,binding signal,C6orf108 (human),-0.362 z-score
same,binding signal,C6orf118 (human),-0.383 z-score
same,binding signal,C6orf145 (human),-0.378 z-score
same,binding signal,C6orf206 (human),-0.393 z-score
same,binding signal,C6orf48 (human),-0.397 z-score
same,binding signal,C6orf49 (human),-0.4 z-score
same,binding signal,C6orf89 (human),-0.379 z-score

# 2 entries drawn at random from the list so far:
sequence,measurement,setting,value
GGTGACAGGGGTATGGGGAGGGG [G4-2 biotinylated (Ct1)],binding signal,C6orf49 (human),-0.4 z-score
same,binding signal,C5orf3 (human),-0.396 z-score
